{"source": "PubChem BioAssay AID1259327 (Drosophila RNAi Screening Center, 2017)", "screen": "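Data from controls in screens of zinc and manganese toxicity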", "system": "Drosophila S2R+ cells", "knock-down reagent": "long dsRNA against Drosophila genes", "timing": "5 days (water added on day 4, read one day later)", "conditions": "water added as vehicle, no metal, one day before read-out", "measurement": "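Luciferase ATP signal per well, normalised to plate mean, duplicate average converted to z-score across plates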", "reading the numbers": "ATP z-score: higher = more total ATP than typical wells; ATP luminescence: higher = more total ATP", "hit rule": "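a hit is any knock-down whose absolute ATP z-score is greater than 1.5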", "calls": "active = hit: ATP up or down; inactive = no clear ATP change", "note": "This is a random part of about 3,100 deposited reagents. Over the whole deposit, 378 (12%) got an active call. 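Hits include both directions; z-score sign shows ATP rise or fall; raw luminescence values are not plate-normalised.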 The record does not give: the amount of reagent."}
{"Target gene": "Gr28a", "DRSC id": "DRSC02290", "ATP z-score, duplicate mean": 0.428, "ATP luminescence, replicate 1 (RLU)": 7.92e5, "ATP luminescence, replicate 2 (RLU)": 7.51e5, "call": "inactive"}
{"Target gene": "EloA", "DRSC id": "DRSC16109", "ATP z-score, duplicate mean": -0.552, "ATP luminescence, replicate 1 (RLU)": 7.14e5, "ATP luminescence, replicate 2 (RLU)": 5.86e5, "call": "inactive"}
{"Target gene": "EloA", "DRSC id": "DRSC23920", "ATP z-score, duplicate mean": 2.79, "ATP luminescence, replicate 1 (RLU)": 1.30e6, "ATP luminescence, replicate 2 (RLU)": 1.09e6, "call": "active"}
{"Target gene": "Grl43a", "DRSC id": "DRSC06383", "ATP z-score, duplicate mean": -0.067, "ATP luminescence, replicate 1 (RLU)": 4.94e5, "ATP luminescence, replicate 2 (RLU)": 7.34e5, "call": "inactive"}
{"Target gene": "rho-5", "DRSC id": "DRSC26239", "ATP z-score, duplicate mean": -1.33, "ATP luminescence, replicate 1 (RLU)": 6.69e5, "ATP luminescence, replicate 2 (RLU)": 7.02e5, "call": "inactive"}
{"Target gene": "rho-5", "DRSC id": "DRSC39726", "ATP z-score, duplicate mean": -0.148, "ATP luminescence, replicate 1 (RLU)": 4.31e5, "ATP luminescence, replicate 2 (RLU)": 4.80e5, "call": "inactive"}
{"Target gene": "Tim17a2", "DRSC id": "DRSC12252", "ATP z-score, duplicate mean": -1.36, "ATP luminescence, replicate 1 (RLU)": 7.31e5, "ATP luminescence, replicate 2 (RLU)": 7.05e5, "call": "inactive"}
{"Target gene": "Tim17a2", "DRSC id": "DRSC23837", "ATP z-score, duplicate mean": 1.73, "ATP luminescence, replicate 1 (RLU)": 1.02e6, "ATP luminescence, replicate 2 (RLU)": 1.11e6, "call": "active"}
{"Target gene": "CG4991", "DRSC id": "DRSC19928", "ATP z-score, duplicate mean": 0.188, "ATP luminescence, replicate 1 (RLU)": 7.58e5, "ATP luminescence, replicate 2 (RLU)": 6.93e5, "call": "inactive"}
{"Target gene": "CG4991", "DRSC id": "DRSC39735", "ATP z-score, duplicate mean": 0.422, "ATP luminescence, replicate 1 (RLU)": 5.62e5, "ATP luminescence, replicate 2 (RLU)": 4.23e5, "call": "inactive"}
{"Target gene": "Or94a", "DRSC id": "DRSC16772", "ATP z-score, duplicate mean": 0.202, "ATP luminescence, replicate 1 (RLU)": 3.11e5, "ATP luminescence, replicate 2 (RLU)": 7.76e5, "call": "inactive"}
{"Target gene": "CG10804", "DRSC id": "DRSC17764", "ATP z-score, duplicate mean": 0.129, "ATP luminescence, replicate 1 (RLU)": 7.24e5, "ATP luminescence, replicate 2 (RLU)": 7.14e5, "call": "inactive"}
{"Target gene": "CG10804", "DRSC id": "DRSC39540", "ATP z-score, duplicate mean": -0.335, "ATP luminescence, replicate 1 (RLU)": 4.36e5, "ATP luminescence, replicate 2 (RLU)": 4.25e5, "call": "inactive"}
{"Target gene": "MsR1", "DRSC id": "DRSC08615", "ATP z-score, duplicate mean": 1.01, "ATP luminescence, replicate 1 (RLU)": 7.59e5, "ATP luminescence, replicate 2 (RLU)": 6.62e5, "call": "inactive"}
{"Target gene": "MsR1", "DRSC id": "DRSC26467", "ATP z-score, duplicate mean": 1.34, "ATP luminescence, replicate 1 (RLU)": 9.62e5, "ATP luminescence, replicate 2 (RLU)": 9.61e5, "call": "inactive"}
{"Target gene": "PGRP-SB1", "DRSC id": "DRSC11090", "ATP z-score, duplicate mean": 0.835, "ATP luminescence, replicate 1 (RLU)": 1.01e6, "ATP luminescence, replicate 2 (RLU)": 1.00e6, "call": "inactive"}
